Experiment: general procedure: Boc solid-phase peptide synthesis; HOBT
Settings: whole synthesis, scale 0.5 mmol

With “HSDAVFSDSYSRFRRMAVRR -Y-L-S-N-V-L-T-(NH2)” as the substance, how does the crude mass read?
The crude mass was 695 mg.

Source: patent US4835252A (The Salk Institute Biotechnology/Industrial Associates, Inc., priority 1987, dated 1989)
